Laboratory results reported in publication PMC12302952.
Results are given in words; binding and its absence hold for the method and conditions named. In cells and extracts the contact can be indirect.

Sequences of proteins named here, by UniProt entry; tags and fusion partners are left off. A change or cut given only in a name is not applied to a line headed by its entry. A line that says so, or that is headed by a name, gives the form on record, which may keep a tag or linker. Residues count along the entry.
EYFP-STIM1 (stromal interaction molecule 1), wild type (Q13586, residues 23-685): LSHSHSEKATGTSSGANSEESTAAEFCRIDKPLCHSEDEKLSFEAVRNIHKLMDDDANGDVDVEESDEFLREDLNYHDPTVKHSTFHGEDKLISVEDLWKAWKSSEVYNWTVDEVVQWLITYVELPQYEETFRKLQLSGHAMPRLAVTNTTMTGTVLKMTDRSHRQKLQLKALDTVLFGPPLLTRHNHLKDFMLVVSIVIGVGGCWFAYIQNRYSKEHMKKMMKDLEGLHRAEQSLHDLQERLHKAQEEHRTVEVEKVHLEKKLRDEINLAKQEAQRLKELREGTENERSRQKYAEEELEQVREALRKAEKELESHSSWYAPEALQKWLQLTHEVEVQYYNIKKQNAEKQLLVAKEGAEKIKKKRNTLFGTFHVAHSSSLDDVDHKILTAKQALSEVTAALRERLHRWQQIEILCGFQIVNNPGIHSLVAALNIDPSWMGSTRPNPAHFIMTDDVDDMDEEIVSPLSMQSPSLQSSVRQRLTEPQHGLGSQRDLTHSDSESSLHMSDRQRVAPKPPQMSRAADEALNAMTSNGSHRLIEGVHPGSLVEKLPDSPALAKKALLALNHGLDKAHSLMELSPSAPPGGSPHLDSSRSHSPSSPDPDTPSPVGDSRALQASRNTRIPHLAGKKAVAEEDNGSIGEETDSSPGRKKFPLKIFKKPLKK
EYFP-STIM1 D76A (constitutively active STIM1 mutant) (Q13586, form named): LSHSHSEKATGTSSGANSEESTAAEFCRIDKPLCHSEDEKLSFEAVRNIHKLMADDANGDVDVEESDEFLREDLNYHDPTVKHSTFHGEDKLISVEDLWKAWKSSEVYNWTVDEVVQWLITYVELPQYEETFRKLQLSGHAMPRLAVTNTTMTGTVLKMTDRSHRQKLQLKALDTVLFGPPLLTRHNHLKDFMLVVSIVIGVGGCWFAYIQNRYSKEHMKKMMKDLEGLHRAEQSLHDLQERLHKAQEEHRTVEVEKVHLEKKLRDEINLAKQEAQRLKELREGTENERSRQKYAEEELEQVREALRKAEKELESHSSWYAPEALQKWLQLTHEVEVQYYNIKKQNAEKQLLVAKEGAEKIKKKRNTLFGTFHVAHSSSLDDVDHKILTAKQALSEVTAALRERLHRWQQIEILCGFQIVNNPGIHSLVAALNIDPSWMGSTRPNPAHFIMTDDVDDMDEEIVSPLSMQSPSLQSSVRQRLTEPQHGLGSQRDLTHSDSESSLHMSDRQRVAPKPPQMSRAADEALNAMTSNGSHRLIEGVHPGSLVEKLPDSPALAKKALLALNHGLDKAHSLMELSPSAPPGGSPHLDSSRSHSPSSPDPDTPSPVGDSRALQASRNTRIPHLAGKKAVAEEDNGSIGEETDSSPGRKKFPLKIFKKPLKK
UniProt Q14571: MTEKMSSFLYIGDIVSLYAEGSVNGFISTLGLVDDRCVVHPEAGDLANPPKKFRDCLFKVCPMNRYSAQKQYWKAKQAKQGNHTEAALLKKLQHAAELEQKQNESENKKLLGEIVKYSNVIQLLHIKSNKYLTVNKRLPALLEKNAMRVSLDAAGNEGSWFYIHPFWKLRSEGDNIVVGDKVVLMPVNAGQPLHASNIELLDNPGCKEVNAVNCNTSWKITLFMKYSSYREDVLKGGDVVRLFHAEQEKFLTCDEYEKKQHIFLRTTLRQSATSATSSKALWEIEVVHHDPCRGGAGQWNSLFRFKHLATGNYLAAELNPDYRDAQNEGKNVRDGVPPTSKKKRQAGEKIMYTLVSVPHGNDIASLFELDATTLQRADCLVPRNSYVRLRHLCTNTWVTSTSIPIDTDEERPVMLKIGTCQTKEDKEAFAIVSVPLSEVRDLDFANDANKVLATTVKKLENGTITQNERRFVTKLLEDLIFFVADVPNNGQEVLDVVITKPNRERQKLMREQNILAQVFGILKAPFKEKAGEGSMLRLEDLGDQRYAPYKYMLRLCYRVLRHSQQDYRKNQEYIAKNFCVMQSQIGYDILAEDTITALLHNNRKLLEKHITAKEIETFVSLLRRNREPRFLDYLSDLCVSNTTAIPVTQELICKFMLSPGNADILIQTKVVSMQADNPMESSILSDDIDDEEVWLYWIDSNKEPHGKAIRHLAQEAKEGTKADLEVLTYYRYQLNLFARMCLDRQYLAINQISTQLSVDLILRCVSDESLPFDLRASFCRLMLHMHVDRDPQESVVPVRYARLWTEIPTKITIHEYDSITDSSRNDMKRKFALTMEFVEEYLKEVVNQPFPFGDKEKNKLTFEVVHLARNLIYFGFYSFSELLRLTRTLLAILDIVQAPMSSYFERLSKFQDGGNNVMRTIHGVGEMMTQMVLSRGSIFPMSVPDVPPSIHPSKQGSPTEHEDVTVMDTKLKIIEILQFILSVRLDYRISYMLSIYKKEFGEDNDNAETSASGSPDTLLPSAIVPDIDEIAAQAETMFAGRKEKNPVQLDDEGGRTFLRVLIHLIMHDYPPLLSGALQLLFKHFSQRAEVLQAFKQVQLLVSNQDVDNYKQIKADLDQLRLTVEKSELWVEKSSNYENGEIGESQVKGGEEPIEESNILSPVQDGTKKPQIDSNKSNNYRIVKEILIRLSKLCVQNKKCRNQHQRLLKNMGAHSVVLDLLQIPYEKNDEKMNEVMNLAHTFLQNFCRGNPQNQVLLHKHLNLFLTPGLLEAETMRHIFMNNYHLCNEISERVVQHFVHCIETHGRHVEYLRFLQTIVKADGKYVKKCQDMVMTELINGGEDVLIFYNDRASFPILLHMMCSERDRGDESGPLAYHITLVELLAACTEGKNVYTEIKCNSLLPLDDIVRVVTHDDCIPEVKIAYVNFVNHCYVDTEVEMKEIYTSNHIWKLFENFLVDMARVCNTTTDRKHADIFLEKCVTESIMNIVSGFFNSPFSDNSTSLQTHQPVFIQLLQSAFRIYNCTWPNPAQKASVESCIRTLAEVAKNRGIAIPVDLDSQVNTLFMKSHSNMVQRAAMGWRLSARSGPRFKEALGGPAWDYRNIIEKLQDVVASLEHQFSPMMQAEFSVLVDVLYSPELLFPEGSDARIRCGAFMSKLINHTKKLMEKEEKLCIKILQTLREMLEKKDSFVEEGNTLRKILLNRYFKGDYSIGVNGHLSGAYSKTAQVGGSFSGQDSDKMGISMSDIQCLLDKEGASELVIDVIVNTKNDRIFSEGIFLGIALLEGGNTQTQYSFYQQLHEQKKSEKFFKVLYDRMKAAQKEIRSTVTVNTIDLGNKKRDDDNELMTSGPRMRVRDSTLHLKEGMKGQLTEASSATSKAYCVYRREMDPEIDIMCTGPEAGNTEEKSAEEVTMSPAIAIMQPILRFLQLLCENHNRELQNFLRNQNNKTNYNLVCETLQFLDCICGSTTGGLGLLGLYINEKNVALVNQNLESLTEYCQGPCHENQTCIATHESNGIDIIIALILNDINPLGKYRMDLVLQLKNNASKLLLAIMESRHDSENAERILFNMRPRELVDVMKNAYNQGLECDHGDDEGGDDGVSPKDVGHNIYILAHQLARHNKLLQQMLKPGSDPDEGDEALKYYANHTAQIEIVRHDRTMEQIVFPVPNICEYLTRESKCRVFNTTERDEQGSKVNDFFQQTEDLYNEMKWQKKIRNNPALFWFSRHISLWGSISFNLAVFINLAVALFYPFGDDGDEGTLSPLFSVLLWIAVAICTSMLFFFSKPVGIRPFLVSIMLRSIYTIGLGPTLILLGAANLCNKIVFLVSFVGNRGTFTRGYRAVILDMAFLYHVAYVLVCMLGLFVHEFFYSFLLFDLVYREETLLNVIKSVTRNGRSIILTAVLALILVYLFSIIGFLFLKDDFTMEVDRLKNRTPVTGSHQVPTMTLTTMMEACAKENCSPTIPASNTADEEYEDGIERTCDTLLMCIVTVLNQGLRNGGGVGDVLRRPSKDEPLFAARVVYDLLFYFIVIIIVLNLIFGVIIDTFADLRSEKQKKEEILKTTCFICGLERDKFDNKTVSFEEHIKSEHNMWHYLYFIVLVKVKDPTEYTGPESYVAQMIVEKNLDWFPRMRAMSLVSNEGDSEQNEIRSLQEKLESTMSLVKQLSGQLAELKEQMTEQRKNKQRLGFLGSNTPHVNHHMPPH

Key:
[1] = biological target: EYFP-STIM1 (stromal interaction molecule 1), wild type (human) (UniProt Q13586); assay: co-IP; EYFP-STIM1 (WT or D76A) captured on anti-GFP magnetic beads (ChromoTek GFP-Trap) from lysates of transfected HEK293 S1/S2 dKO cells; lysis buffer 150 mM NaCl, 25 mM Tris-Cl pH 7.6, 10% glycerol, 1 mM EDTA, 0.5% Triton X-100; 1 h on ice; three washes; blots for IP3R-2, IP3R-3 and STIM1
[2] = biological target: EYFP-STIM1 D76A (constitutively active STIM1 mutant) (human) (UniProt Q13586); assay: as above

Substance | binding [1] | binding [2]
inositol 1,4,5-trisphosphate receptor type 3 (IP3R3) (from UniProt Q14573 1-2671) | no binding | no binding
inositol 1,4,5-trisphosphate receptor type 2 (IP3R2) (from UniProt Q14571 1-2701) | no binding | no binding
